The text below walks through data of PMC5311907 (Interface Focus, 2017).

The series is described as follows: general procedure: Fmoc solid-phase peptide synthesis; Rink amide ChemMatrix; DIC/Oxyma. The settings on record: conjugation step.

COX8-Cys-Ac-GTCA-Lys(N3)-NH2 came in with a conjugation yield of 80%.
